Data source: PubChem BioAssay AID1159578 (Peter MacCallum Cancer Centre, 2015)

Assay: 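siRNA pools altering how lymphatic endothelial cells close a scratch wound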 (primary screen)
Cells: human lymphatic endothelial cells
Reagents: siRNA pool against human genes, 40 nM
Duration: 48 h after transfection
Detection: 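Cells stained with dye and imaged after a scratch; covered wound area and nuclei counted, duplicates averaged, migration set against mock wells and turned into a robust z-score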
Reading the numbers: migration robust z-score: higher = faster migration into the scratch; nuclei per well: higher = more cells in the well
Rule for the call: 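Migration changed when robust z exceeds 2 or falls below -2 and mean nuclei number is at least 3300; otherwise not called changed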
Calls: active = migration changed; inactive = no migration change, or too few cells
The deposit covers about 18,000 reagents; below is an unselected part. In the full data, about 1,030 (5.7%) got an active call. 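Inactive calls also include pools with fewer than 3300 nuclei, whose migration was not assessed.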 Raw values are not corrected between plates. Not all columns of the deposit are shown.

gene symbol | migration robust z-score | migration class with cell-count check | nuclei per well, duplicate mean | activity call
NDUFAF6 (NADH:ubiquinone oxidoreductase complex assembly factor 6) | -0.59 | migration z between -2 and 2; enough cells | 6616 | inactive
FAIM2 (Fas apoptotic inhibitory molecule 2) | 0.44 | migration z between -2 and 2; enough cells | 6416 | inactive
MAGEA1 (MAGE family member A1) | -0.83 | migration z between -2 and 2; enough cells | 5966 | inactive
EZH2 (enhancer of zeste 2 polycomb repressive complex 2 subunit) | -0.28 | migration z between -2 and 2; enough cells | 4384 | inactive
CYB5R1 (cytochrome b5 reductase 1) | 0.39 | migration z between -2 and 2; enough cells | 4946 | inactive
SPTLC1 (serine palmitoyltransferase long chain base subunit 1) | -0.7 | migration z between -2 and 2; enough cells | 3614 | inactive
NCR1 (natural cytotoxicity triggering receptor 1) | 0.44 | migration z between -2 and 2; enough cells | 5200 | inactive
NRDC (nardilysin convertase) | 0.73 | migration z between -2 and 2; enough cells | 5256 | inactive
CIART (circadian associated repressor of transcription) | 0.67 | migration z between -2 and 2; enough cells | 4794 | inactive
DCST2 (DC-STAMP domain containing 2) | 0.76 | migration z between -2 and 2; enough cells | 7337 | inactive
PCBD2 (pterin-4 alpha-carbinolamine dehydratase 2) | 1.55 | migration z between -2 and 2; enough cells | 5290 | inactive
CPZ (carboxypeptidase Z) | 1.35 | migration z between -2 and 2; enough cells | 5014 | inactive
KCNH4 (potassium voltage-gated channel subfamily H member 4) | -0.52 | migration z between -2 and 2; enough cells | 4387 | inactive
LRP4 (LDL receptor related protein 4) | 1.44 | migration z between -2 and 2; enough cells | 5027 | inactive
VWA3B (von Willebrand factor A domain containing 3B) | 0.76 | migration z between -2 and 2; enough cells | 5748 | inactive
MRPS18C (mitochondrial ribosomal protein S18C) | 1.02 | migration z between -2 and 2; enough cells | 6036 | inactive
SERPINA4 (serpin family A member 4) | -2.34 | migration z below -2; enough cells | 4240 | active
AMDHD2 (amidohydrolase domain containing 2) | -0.65 | migration z between -2 and 2; enough cells | 5151 | inactive
RPS6KL1 (ribosomal protein S6 kinase like 1) | -0.23 | migration z between -2 and 2; enough cells | 5217 | inactive
SACK1F (scaffolding CK1 anchoring protein F) | 0.18 | migration z between -2 and 2; enough cells | 5238 | inactive
TEX30 (testis expressed 30) | -0.56 | migration z between -2 and 2; enough cells | 5724 | inactive
OGG1 (8-oxoguanine DNA glycosylase) | -1.06 | migration z between -2 and 2; enough cells | 4926 | inactive
FRMPD4 (FERM and PDZ domain containing 4) | 0.98 | migration z between -2 and 2; enough cells | 5416 | inactive
CEACAM8 (CEA cell adhesion molecule 8) | 0.86 | migration z between -2 and 2; enough cells | 4915 | inactive
CPA1 (carboxypeptidase A1) | -0.7 | migration z between -2 and 2; enough cells | 6569 | inactive

3 entries from above in another layout:
gene symbol	migration robust z-score	migration class with cell-count check	nuclei per well, duplicate mean	activity call
FAIM2 (Fas apoptotic inhibitory molecule 2)	0.44	migration z between -2 and 2; enough cells	6416	inactive
MAGEA1 (MAGE family member A1)	-0.83	migration z between -2 and 2; enough cells	5966	inactive
EZH2 (enhancer of zeste 2 polycomb repressive complex 2 subunit)	-0.28	migration z between -2 and 2; enough cells	4384	inactive

More results follow.
gene symbol | migration robust z-score | migration class with cell-count check | nuclei per well, duplicate mean | activity call
YWHAG | -2.54 | migration z below -2; enough cells | 3591 | active
GSDMC (gasdermin C) | 0.16 | migration z between -2 and 2; enough cells | 6100 | inactive
TRIM59 (tripartite motif containing 59) | 0.93 | migration z between -2 and 2; enough cells | 5228 | inactive
PHF23 (PHD finger protein 23) | 0.75 | migration z between -2 and 2; enough cells | 6025 | inactive
ADCY5 (adenylate cyclase 5) | -0.1 | migration z between -2 and 2; enough cells | 5078 | inactive
ESPN (espin) | -1.46 | migration z between -2 and 2; enough cells | 4587 | inactive
ZNF354C (zinc finger protein 354C) | 0.19 | migration z between -2 and 2; enough cells | 5989 | inactive
DDAH2 (DDAH family member 2, ADMA-independent) | -1.94 | migration z between -2 and 2; enough cells | 5018 | inactive
HECTD2 (HECT domain E3 ubiquitin protein ligase 2) | 1.19 | migration z between -2 and 2; enough cells | 4580 | inactive
HIRA (histone cell cycle regulator) | 0.08 | migration z between -2 and 2; enough cells | 6136 | inactive
TIGD6 (tigger transposable element derived 6) | 0.18 | migration z between -2 and 2; enough cells | 5361 | inactive
YTHDF2 (YTH N6-methyladenosine RNA binding protein F2) | -1.99 | migration z between -2 and 2; enough cells | 3363 | inactive
PDIA4 (protein disulfide isomerase family A member 4) | 0.65 | migration z between -2 and 2; enough cells | 5611 | inactive
CELA3B (chymotrypsin like elastase 3B) | -0.16 | migration z between -2 and 2; enough cells | 5356 | inactive
